Measurements taken from publication doi:10.1101/2025.10.03.680274.
Substitutions are numbered along the chain they refer to. These are yes or no findings as the source states them, for the method shown. Binding seen in cells or lysates may run through a third protein. Sequences can lack the tags named with a protein.

By UniProt entry, the sequences of proteins in these tests, tags left out. Where a name states a change or a piece, a line headed by the entry shows the natural chain unless it says otherwise.
UniProt P49407, whole entry: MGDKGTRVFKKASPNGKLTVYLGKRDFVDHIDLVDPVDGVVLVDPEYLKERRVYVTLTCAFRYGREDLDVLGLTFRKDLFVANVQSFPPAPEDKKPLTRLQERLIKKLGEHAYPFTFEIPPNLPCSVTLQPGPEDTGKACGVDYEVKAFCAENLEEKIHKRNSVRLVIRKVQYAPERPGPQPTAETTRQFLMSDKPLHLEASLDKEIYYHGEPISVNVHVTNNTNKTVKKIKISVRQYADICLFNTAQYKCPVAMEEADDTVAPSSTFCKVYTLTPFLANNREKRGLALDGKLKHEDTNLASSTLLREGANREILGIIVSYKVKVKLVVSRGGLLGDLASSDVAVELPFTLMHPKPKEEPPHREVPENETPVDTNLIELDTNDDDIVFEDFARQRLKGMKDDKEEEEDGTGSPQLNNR

Legend:
Test in all cases: split reporter
[1] = target: T1, ADGRL4 C-terminal Fragment 1 (ADGRL4-CTF1), HA-tagged, C-terminal SmBiT (human) (UniProt Q9HBW9)
T1 sequence: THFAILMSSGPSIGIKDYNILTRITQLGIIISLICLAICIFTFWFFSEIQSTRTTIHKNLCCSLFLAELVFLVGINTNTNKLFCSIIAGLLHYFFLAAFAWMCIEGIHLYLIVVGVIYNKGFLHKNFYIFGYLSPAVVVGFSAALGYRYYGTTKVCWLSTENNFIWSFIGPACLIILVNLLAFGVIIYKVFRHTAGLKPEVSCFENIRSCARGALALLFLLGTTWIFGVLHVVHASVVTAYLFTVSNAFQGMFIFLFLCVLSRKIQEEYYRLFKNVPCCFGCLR

[2] = target: T2, ADGRL4 Full-Length 1 (ADGRL4-FL1), HA-tagged, C-terminal SmBiT (human) (UniProt Q9HBW9)
T2 sequence: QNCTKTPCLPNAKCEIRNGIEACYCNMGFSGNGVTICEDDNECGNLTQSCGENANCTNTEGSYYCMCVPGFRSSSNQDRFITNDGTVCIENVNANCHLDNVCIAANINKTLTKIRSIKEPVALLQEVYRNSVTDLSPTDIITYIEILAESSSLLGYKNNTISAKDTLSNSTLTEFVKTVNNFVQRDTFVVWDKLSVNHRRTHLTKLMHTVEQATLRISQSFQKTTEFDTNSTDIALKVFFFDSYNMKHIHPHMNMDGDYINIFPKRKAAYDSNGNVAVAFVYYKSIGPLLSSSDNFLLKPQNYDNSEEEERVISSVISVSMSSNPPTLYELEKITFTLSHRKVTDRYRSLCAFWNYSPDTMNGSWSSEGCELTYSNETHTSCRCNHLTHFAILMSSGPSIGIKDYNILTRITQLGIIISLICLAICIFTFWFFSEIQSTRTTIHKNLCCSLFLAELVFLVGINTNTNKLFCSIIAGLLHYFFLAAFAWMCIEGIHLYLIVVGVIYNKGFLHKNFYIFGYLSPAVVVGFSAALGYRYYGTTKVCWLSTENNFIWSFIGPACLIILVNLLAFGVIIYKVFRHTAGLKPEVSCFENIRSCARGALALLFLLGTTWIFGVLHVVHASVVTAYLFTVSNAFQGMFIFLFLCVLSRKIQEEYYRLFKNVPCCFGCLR

[3] = target: T3, ADGRL4 Mutated Full-Length 1 (ADGRL4-FLmut1), H405A T407A, HA-tagged, C-terminal SmBiT (human) (UniProt Q9HBW9)
T3 sequence: T2 sequence with H386A, T388A

Measured: binding

LgBiT-βarr2 (β-arrestin 2) (from UniProt P32121 1-409)
no binding: all assays above

LgBiT-βarr1 (β-arrestin 1) (from UniProt P49407 1-418)
no binding: all assays above
